From PubChem BioAssay AID1671190 (National Center for Advancing Translational Sciences (NCATS), 2021)
“And” between values parts separate entries of the source, which are not always exact repeats. Equal values may be shown once. The whole screen tested about 580,000 compounds, of which about 6,100 (1.1%) were called active. Inconclusive results, whose numbers are uncertain, are shown with a selection of clear calls. The call rests on the fitted dose curve; in most records, active means well fitted inhibition curve with a large enough effect; inconclusive means small, poorly fitted or top-dose-only effect, or another doubt; inactive means no such curve, though single readings can be large or run the other way. Potencies beside an inconclusive call are fits to weak or partial responses and may not hold up.
On the % scale 0 is the no-effect control and ±100 the full control effect; potency means the concentration at half of the fitted maximal effect.

By UniProt entry, the sequences of proteins in these tests, tags left out.
UniProt P18054, whole entry, looked up: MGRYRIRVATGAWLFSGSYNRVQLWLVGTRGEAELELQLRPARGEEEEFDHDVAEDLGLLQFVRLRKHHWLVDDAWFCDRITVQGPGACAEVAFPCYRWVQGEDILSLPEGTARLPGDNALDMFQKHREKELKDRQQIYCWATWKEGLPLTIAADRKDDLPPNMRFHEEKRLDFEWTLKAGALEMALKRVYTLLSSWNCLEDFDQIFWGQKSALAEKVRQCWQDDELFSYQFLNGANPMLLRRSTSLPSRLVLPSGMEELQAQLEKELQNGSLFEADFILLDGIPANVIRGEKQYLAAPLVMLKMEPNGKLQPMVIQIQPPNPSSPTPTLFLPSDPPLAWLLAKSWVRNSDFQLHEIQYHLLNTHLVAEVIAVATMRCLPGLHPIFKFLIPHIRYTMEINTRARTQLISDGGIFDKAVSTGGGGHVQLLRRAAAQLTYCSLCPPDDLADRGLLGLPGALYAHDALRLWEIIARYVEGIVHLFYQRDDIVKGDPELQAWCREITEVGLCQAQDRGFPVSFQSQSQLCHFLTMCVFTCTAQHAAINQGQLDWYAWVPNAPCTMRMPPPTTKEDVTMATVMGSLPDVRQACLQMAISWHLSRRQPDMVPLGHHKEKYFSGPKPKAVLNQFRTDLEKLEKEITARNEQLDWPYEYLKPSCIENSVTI

These compounds were tested against Polyunsaturated fatty acid lipoxygenase ALOX12 (Homo sapiens) (UniProt P18054) (assay: Primary qHTS assay for inhibitors of human arachidonate 12S-lipoxygenase (ALOX12): Round 2). Settings: purified 12hLO, xylenol orange hydroperoxide absorbance; activity change, negative = inhibition: at 108 µM (top of the series) unless noted.
Method in brief: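 Purified human 12hLO (150 nM final) in 25 mM Hepes, 0.01% Triton X-100, pH 7.0 was preincubated 15 min at room temperature with compound. Then 40 uM arachidonic acid was added, 30 min. Hydroperoxide was read by Fe-XO absorbance ratio 573/405 nm.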
`CSCCC(=O)N1CCC2(CC1)CC(c1ccccc1)C(=O)N2C` (stereo not given) was tested, and the Potency was inconclusive: 1 µM [inhibitor, full curve, poor fit]. For `O=C(NNC(=O)c1ccc(CNS(=O)(=O)c2ccc(F)c(Cl)c2)cc1)c1ccccc1`, the Potency was inconclusive: 24.3 µM [inhibitor, partial curve]. For `CCCc1cc(=O)[nH]c(SCC(=O)NC2CCCC2)n1`, the Potency was inconclusive: 89.1 µM [inhibitor, single point]. `O=C(O)COc1ccc(-c2nccc3c2C(=O)N(Cc2c[nH]c4ccccc24)CC(COc2ccc(F)cc2F)O3)cc1` (stereo not given) was tested, and the Potency was inconclusive: 11.2 µM [inhibitor, full curve]. For `O=C(NCc1cccs1)C1CC(c2ccc(Cl)cc2)=NO1` (stereo not given), the “activity change, negative = inhibition” value was inactive: 3.94%. `CCOc1ccc(S(=O)(=O)N2C[C@@H](C(N)=O)[C@H](C3CCN(C)CC3)C2)cc1` was tested, and the Potency was inconclusive: 89.1 µM [inhibitor, single point]. `Cc1ccc(NC(=O)C(C)Sc2ccccc2)c(C)c1` (stereo not given) was tested, and the “activity change, negative = inhibition” value was inactive: 4.99%. `O=C(COC(=O)/C=C/c1ccc(F)cc1)NC(=O)NCc1ccccc1` was tested, and the “activity change, negative = inhibition” value was inactive: -1.55%. `CC(C)(C)OC(=O)Nc1ccc(CC(=O)N2CCCC2c2ccsc2)cc1` (stereo not given) was tested, and the Potency was inconclusive: 39.8 µM [inhibitor, partial curve, poor fit]. For `O=C(NCCCN1CCN(c2ccccc2)CC1)c1sc2ncccc2c1-n1cccc1`, the “activity change, negative = inhibition” value was inactive: -20.9%. With `Cc1ccc(S(=O)(=O)CC(=O)c2cccc(Br)c2)cc1` the Potency was inconclusive: 100 µM [inhibitor, single point]. For `COC(=O)c1c(C)[nH]c(-c2ccccc2OC)c1C1C(=O)Nc2c(Cl)cccc21` (stereo not given), the Potency was inconclusive: 50.1 µM [inhibitor, partial curve, poor fit]. With `CCCc1c(O)nc(SC2CC(=O)N(c3cc(OC)ccc3OC)C2=O)[nH]c1=O` (stereo not given) the Potency was inconclusive: 14.1 µM [inhibitor, full curve, poor fit]. `O=C(Nc1ccccc1)N[C@H]1[C@H](O)[C@@H](N2CCN(c3ccccc3)CC2)[C@@H]2OC[C@H]1O2` was tested, and the Potency was active: 112 µM. For `CCC1CN(C(=O)CCc2ncc(-c3ccc(Cl)cc3)o2)CCO1` (stereo not given), the “activity change, negative = inhibition” value was inactive: 42.5%. In the case of `Cc1onc(-c2ccccc2Cl)c1C(=O)N/N=C(\N)COc1ccc(Cl)cc1`, the Potency is reported as inconclusive: 70.8 µM [inhibitor, partial curve, poor fit]. In the case of `Cc1ccc(OC(C)C(=O)Nc2ccncc2)cc1C` (stereo not given), the Potency is reported as inconclusive: 2.24 µM [inhibitor, full curve, poor fit]. In the case of `CCN1C(=O)[C@H]2[C@H]3CN=C(SCc4ccc(C#N)cc4)N3[C@@](C)(C(=O)OC)[C@H]2C1=O`, the Potency is reported as inconclusive: 44.7 µM [inhibitor, partial curve, poor fit]. In the case of `O=[N+]([O-])c1ccccc1CNc1ccc(F)c(Cl)c1`, the “activity change, negative = inhibition” value is reported as inactive: -15.2%. In the case of `CCCOc1ccc2c(=O)c(-c3cc(C(=O)OC)oc3C)c(C)oc2c1`, the Potency is reported as inconclusive: 44.7 µM [inhibitor, partial curve, poor fit]. For `COCCn1c(=O)c2c(n1Cc1ccccc1)CN(C(=O)c1nc3ccccc3[nH]1)CC2`, the Potency was inconclusive: 28.2 µM [inhibitor, full curve, poor fit]. With `COc1ccc(C2=NN(C(=O)CN3CCc4cc(OC)c(OC)cc4C3)C(c3ccco3)C2)cc1` (stereo not given) the Potency was inconclusive: 44.7 µM [inhibitor, partial curve, poor fit]. For `CC(Nc1ccc(F)cc1)=[N+](C)CCNS(=O)(=O)c1ccc(Cl)cc1`, the Potency was inconclusive: 35.5 µM [inhibitor, single point]. For `CN(Cc1cn(Cc2ccccc2)nn1)S(=O)(=O)c1ccc(F)cc1Br`, the Potency was inconclusive: 7.08 µM [inhibitor, single point]. For `O=c1n(-c2ccc([N+](=O)[O-])cc2)nc2n1CCN(Cc1ccc(F)cc1)C2`, the Potency was inconclusive: 6.31 µM [inhibitor, partial curve, poor fit]. For `Nc1ncc(S(=O)(=O)NCc2ccccc2)cn1`, the “activity change, negative = inhibition” value was inactive: -12%. `COc1ccc(C)cc1NC(=O)CSc1nnc(-c2cc3cccc(OC)c3o2)n1N` was tested, and the Potency was inconclusive: 7.08 µM [inhibitor, full curve, poor fit]. `CN1C(C(=O)Nc2cccc(O)c2)=CC(c2cccs2)=NS1(=O)=O` was tested, and the Potency was inconclusive: 100 µM [inhibitor, partial curve, poor fit] and inconclusive: 50.1 µM [inhibitor, partial curve, poor fit]. With `CCSC1=N/C(=C\C=C2/Oc3ccccc3N2CC)C(=O)S1` the Potency was inconclusive: 44.7 µM [inhibitor, partial curve]. `NC(=O)Cc1ccc2c(c1)OCCCO2` was tested, and the “activity change, negative = inhibition” value was inactive: -8.98%. `COc1ccc(C(=O)COC(=O)c2ccc(F)cc2F)c(OC)c1` was tested, and the Potency was inconclusive: 50.1 µM [inhibitor, partial curve, poor fit]. With `Cc1cc(C(=O)NCCCOC(C)C)c2c(C3CCCN3)noc2n1` (stereo not given) the Potency was active: 14.1 µM. In the case of `Cc1cccc(NC(=O)c2ccc(F)c(S(=O)(=O)NCc3ccco3)c2)c1`, the Potency is reported as inconclusive: 56.2 µM [inhibitor, partial curve, poor fit]. `O=C(CSc1cccc2cccc(Cl)c12)NCc1cccs1` was tested, and the Potency was inconclusive: 44.7 µM [inhibitor, partial curve, poor fit] and inconclusive: 35.5 µM [inhibitor, partial curve, poor fit]. With `CCCCCc1cc(=O)oc2c(C(CCN(CC)CC)c3ccc(OC)cc3)c(OC)cc(OC)c12` (stereo not given) the “activity change, negative = inhibition” value was inactive: -28.9%. With `CC(Oc1cccc(Cl)c1)C(=O)Nc1nc(-c2ccccn2)cs1` (stereo not given) the “activity change, negative = inhibition” value was inactive: -14%. `CCOc1ccc(-n2ccnc2SCC(=O)Nc2cc(C)ccc2C)cc1` was tested, and the activity change, negative = inhibition was inconclusive: -46.3% [inhibitor]. `CCc1noc(C)c1C(=O)NC1CC(C)(C)Cc2c1cnn2-c1ccccc1` (stereo not given) was tested, and the Potency was inconclusive: 3.16 µM [inhibitor, full curve, poor fit]. With `CC(C)CC(=O)Nc1cc(C(C)(C)C)ccc1O` the “activity change, negative = inhibition” value was inactive: -47.1%. In the case of `O=[N+]([O-])c1cc(Cl)cc(/C=N/NC(=S)Nc2cc(S(=O)(=O)N3CCOCC3)ccc2Cl)c1O`, the Potency is reported as active: 25.1 µM.
